Results taken from US20250135046A1, “CHOLECYSTOKININ B RECEPTOR-TARGETED COMPLEX AND A CONTRAST AGENT THEREOF” (National Atomic Research Institute, priority 2023, published 2025).
At least one peptide structure holds a part that was inferred or is arguable (an end, a ring closure or a residue). Some results were stated once for a whole list of compounds, not compound by compound. Square brackets hold non-standard residues; d marks the D form. Peptide text beside a SMILES is read from it. * marks the point of attachment. DOTA = O=C(O)CN1CCN(CC(=O)O)CCN(CC(=O)*)CCN(CC(=O)O)CC1; Butanoyl(4-(4-MePh)) = Cc1ccc(CCCC(=O)*)cc1; 4Amb = NCc1ccc(C(=O)O)cc1; Nle = CCCC[C@H](N)C(=O)O; Ahx = NCCCCCC(=O)O

Columns and labels:
A431-CCK2R^(−) cells = assay: Cell surface adsorption and endocytosis experiments, A431-CCK2R^(−) cells; assay type: cell-based; conditions: 37° C., 2 μCi, n=3
A431-CCK2R^(+) cells = assay: Cell surface adsorption and endocytosis experiments, A431-CCK2R^(+) cells; assay type: cell-based; conditions: 37° C., 2 μCi, n=3
[1] = tested on: tumor overexpressing cholecystokinin B receptor; assay: Inhibition of growth of tumor overexpressing cholecystokinin B receptor in tumor mice; assay type: in vivo, nude mice; conditions: for tumor volume D0: D0, initial tumor volume at start of treatment; for tumor volume D23: D23, after twenty-three days of treatment; for tumor volume growth compared with the initial tumor volume: after twenty-three days of treatment

SMILES | cell endocytosis drug amount (A431-CCK2R^(−) cells; 1 hour) [% IA/10^6 cells] | cell surface adsorption drug amount (A431-CCK2R^(−) cells; 1 hour) [% IA/10^6 cells] | cell endocytosis drug amount (A431-CCK2R^(−) cells; 4 hours) [% IA/10^6 cells] | cell surface adsorption drug amount (A431-CCK2R^(−) cells; 4 hours) [% IA/10^6 cells] | cell endocytosis drug amount (A431-CCK2R^(+) cells; 1 hour) [% IA/10^6 cells] | cell surface adsorption drug amount (A431-CCK2R^(+) cells; 1 hour) [% IA/10^6 cells] | cell endocytosis drug amount (A431-CCK2R^(+) cells; 4 hours) [% IA/10^6 cells] | cell surface adsorption drug amount (A431-CCK2R^(+) cells; 4 hours) [% IA/10^6 cells] | tumor volume D0 [1] [mm^3] | tumor volume D23 [1] [mm^3] | tumor volume growth compared with the initial tumor volume [1]
CCCC[C@H](NC(=O)[C@H](Cc1c[nH]c2ccccc12)NC(=O)CNC(=O)[C@H](Cc1ccc(O)cc1)NC(=O)[C@H](C)NC(=O)[C@H](CCC(=O)O)NC(=O)[C@H](CCC(=O)O)NC(=O)[C@H](CCC(=O)O)NC(=O)[C@H](CCC(=O)O)NC(=O)[C@H](CCC(=O)O)NC(=O)[C@H](CCC(=O)O)NC(=O)CCCCCNC(=O)[C@H](CCCCNC(=O)CCCc1ccc(C)cc1)NC(=O)CN1CCN(CC(=O)O)CCN(CC(=O)O)CCN(CC(=O)O)CC1)C(=O)N[C@@H](CC(=O)O)C(=O)N[C@@H](Cc1ccccc1)C(N)=O [Lu-177-D1, metal not drawn] ({DOTA}-K(Butanoyl(4-(4-MePh)))[Ahx]EEEEEEAYGW[Nle]DF-NH2) | 0.32±0.10 | 1.08±0.49 | 0.15±0.18 | 1.04±0.35 | 45.32±6.12 | 5.93±1.68 | 90.49±5.65 | 14.57±4.06 | 352.1±44.3 | 1384.7±333.1 | 3.8-4.1 times
CCCC[C@H](NC(=O)[C@H](Cc1c[nH]c2ccccc12)NC(=O)CNC(=O)[C@H](Cc1ccc(O)cc1)NC(=O)[C@H](C)NC(=O)[C@@H](CCC(=O)O)NC(=O)[C@@H](CCC(=O)O)NC(=O)[C@@H](CCC(=O)O)NC(=O)[C@@H](CCC(=O)O)NC(=O)[C@@H](CCC(=O)O)NC(=O)[C@@H](CCC(=O)O)NC(=O)CN1CCN(CC(=O)O)CCN(CC(=O)O)CCN(CC(=O)O)CC1)C(=O)N[C@@H](CC(=O)O)C(=O)N[C@@H](Cc1ccccc1)C(N)=O [Lu-177-D2, metal not drawn, reference compound] | 1.26±0.06 | 3.42±0.21 | 1.29±0.01 | 3.24±0.15 | 37.37±3.04 | 6.60±0.17 | 71.44±3.52 | 11.51±3.16 | – | 2237.1±846.3 | –
CCCC[C@H](NC(=O)[C@H](Cc1c[nH]c2ccccc12)NC(=O)CNC(=O)[C@H](Cc1ccc(O)cc1)NC(=O)[C@H](C)NC(=O)[C@H](CCC(=O)O)NC(=O)[C@H](CCC(=O)O)NC(=O)[C@H](CCC(=O)O)NC(=O)[C@H](CCC(=O)O)NC(=O)[C@H](CCC(=O)O)NC(=O)[C@H](CCC(=O)O)NC(=O)c1ccc(CNC(=O)[C@H](CCCCNC(=O)CCCc2ccc(C)cc2)NC(=O)CN2CCN(CC(=O)O)CCN(CC(=O)O)CCN(CC(=O)O)CC2)cc1)C(=O)N[C@@H](CC(=O)O)C(=O)N[C@@H](Cc1ccccc1)C(N)=O [Lu-177-D3, metal not drawn] ({DOTA}-K(Butanoyl(4-(4-MePh)))[4Amb]EEEEEEAYGW[Nle]DF-NH2) | 0.25±0.04 | 0.59±0.01 | 0.17±0.03 | 0.55±0.09 | 41.58±3.46 | 5.51±0.45 | 81.26±7.27 | 8.11±2.65 | 308.8±55.6 | 1162.6±75.9 | 3.8-4.1 times
